Experimental data published in publication PMC4513851.
No constants are given. Whether binding was seen depends on the method and setting. A result given as binding can be weak or reduced; the word gives no strength.

Biological target: LeishIF4G3, yeast two-hybrid fusion (not stated (Leishmania; printed accession is of L. major)) (UniProt Q4QEK5)
Experiment: two-hybrid; GAL4-based, yeast YRG-2; SD-2 and SD-3 plates with 1.75 mM 3-amino-1,2,4-triazole; growth without histidine after 4–7 days

- binding: binds
Substance: LeishIF4E4, yeast two-hybrid fusion (from UniProt Q4Q7R3)
